Results reported in patent publication US20250170098A1, “MOLECULAR JACKHAMMER FOR MECHANICAL DESTRUCTION OF CELLULAR STRUCTURE” (William Marsh Rice University, priority 2022, published 2025).

Assay: Temperature of the cell suspension under NIR light (photothermal effect)
Set-up: species or system human
Settings: for photothermal effect, temperature of the media: 2 μM, 730 nm light at 80 mW/cm^2 for 10 min

| Compound | photothermal effect, temperature of the media | photothermal effect, temperature of the medium (32 μM up to 400 μM, 730 nm light at 80 mW/cm^2) |
| --- | --- | --- |
| CN1/C(=C\C=C2C=C(/C=C/C3=[N+](CCCCCC(=O)NCCCCCCN)c4ccc5ccccc5c4C3(C)C)CCC\2)C(C)(C)c2c1ccc1ccccc21 [Cy7.5-amine] | no photothermal effect | – |
| CC1(C)C(/C=C/C=C/C=C/C=C2\N(CCCCS(=O)(=O)O)c3ccc4ccccc4c3C2(C)C)=[N+](CCCCS(=O)(=O)[O-])c2ccc3ccccc3c21 [ICG, indocynine green] | did not cause a photothermal effect | significant temperature increase |
